This note sets out measurements from article PMC9440255.

Amino acid sequences for entries named in this document (tags omitted).
UniProt O15105: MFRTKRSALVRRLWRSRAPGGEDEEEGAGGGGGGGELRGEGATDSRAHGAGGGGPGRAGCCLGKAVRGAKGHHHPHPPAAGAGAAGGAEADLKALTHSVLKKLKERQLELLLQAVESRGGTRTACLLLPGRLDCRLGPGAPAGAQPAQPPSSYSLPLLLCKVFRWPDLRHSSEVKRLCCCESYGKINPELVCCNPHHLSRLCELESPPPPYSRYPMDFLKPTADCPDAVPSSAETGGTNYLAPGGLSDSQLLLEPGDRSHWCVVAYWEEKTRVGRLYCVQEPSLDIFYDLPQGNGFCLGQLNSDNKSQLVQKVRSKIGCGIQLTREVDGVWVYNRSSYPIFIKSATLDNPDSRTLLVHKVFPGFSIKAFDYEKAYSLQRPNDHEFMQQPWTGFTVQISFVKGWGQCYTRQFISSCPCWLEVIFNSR
UniProt O35253: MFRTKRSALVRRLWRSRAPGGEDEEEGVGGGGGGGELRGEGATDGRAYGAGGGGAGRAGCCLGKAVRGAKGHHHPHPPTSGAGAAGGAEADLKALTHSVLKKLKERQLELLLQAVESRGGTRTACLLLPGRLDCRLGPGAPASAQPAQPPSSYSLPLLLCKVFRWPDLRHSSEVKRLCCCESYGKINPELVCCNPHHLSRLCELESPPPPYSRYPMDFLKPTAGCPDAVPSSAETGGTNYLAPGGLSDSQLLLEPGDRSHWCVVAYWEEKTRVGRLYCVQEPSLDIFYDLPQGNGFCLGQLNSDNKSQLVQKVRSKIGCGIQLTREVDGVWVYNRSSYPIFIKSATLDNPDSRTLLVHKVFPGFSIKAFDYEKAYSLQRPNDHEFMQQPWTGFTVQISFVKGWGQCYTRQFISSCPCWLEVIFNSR
UniProt Q9HAU4: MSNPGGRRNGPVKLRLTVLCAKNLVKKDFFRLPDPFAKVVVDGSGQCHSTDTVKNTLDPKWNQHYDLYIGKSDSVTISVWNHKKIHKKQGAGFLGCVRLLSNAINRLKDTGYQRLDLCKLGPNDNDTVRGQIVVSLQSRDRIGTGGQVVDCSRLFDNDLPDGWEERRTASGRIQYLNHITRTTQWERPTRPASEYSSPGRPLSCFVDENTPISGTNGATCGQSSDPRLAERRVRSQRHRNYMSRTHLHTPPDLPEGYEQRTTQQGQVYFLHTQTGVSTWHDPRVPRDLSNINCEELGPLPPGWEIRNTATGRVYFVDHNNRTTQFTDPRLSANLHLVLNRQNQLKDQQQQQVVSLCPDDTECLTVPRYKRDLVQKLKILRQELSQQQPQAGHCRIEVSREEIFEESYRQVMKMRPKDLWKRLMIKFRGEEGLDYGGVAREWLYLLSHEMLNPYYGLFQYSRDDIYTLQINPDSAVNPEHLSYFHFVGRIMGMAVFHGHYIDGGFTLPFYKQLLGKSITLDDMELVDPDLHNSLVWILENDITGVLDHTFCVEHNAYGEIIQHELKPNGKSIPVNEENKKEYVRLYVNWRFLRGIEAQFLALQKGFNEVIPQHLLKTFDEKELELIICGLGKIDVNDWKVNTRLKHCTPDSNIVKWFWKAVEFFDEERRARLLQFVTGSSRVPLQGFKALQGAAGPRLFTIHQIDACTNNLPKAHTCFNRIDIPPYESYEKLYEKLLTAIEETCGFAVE

No constants are given. Whether binding was seen depends on the method and setting. In cells and extracts the contact can be indirect. Some entries that bind do so weakly or less than the wild type. For part of these data: Sequences can lack the tags named with a protein.

Assay [1] deals with SMAD7-HA (UniProt O15105). In words: co-IP; HEK293T cells transfected with SMAD7-HA, Myc-SMURF2 and different amounts of PROM1-FLAG (0, 2 and 4 µg); immunoprecipitation and immunoblotting.
Assay [2] deals with SMAD7, endogenous in mouse liver (mouse (endogenous in liver)) (UniProt O35253). Description: co-IP; reciprocal endogenous immunoprecipitation from livers of mice subjected to BDL for 1 week; lysates (500 µg of protein) incubated with specific antibodies overnight, then Protein A- or Protein G-agarose beads for 3 h; immunoblotting.
For assay [3], the target named is SMAD7-HA (UniProt O15105). In words: co-IP; HEK293T cells transfected with PROM1-FLAG and SMAD7-HA or their truncated mutants; whole-cell lysates (500 µg of protein) incubated with specific antibodies overnight, then Protein A- or Protein G-agarose beads for 3 h; immunoblotting.

Consider “Myc-SMURF2 (from UniProt Q9HAU4 1-748) (enzyme)”, for which the binding entry in assay [1] was “binds”.

B1: Prominin-1 (PROM1), endogenous in mouse liver (protein, UniProt O54990 20-867)
chain: EGQPAFHNTPGAMNYELPTTKYETQDTFNAGIVGPLYKMVHIFLSVVQPNDFPLDLIKKLIQNKKFDISVDSKEPEIIVLALKIALYEIGVLICAILGLLFIILMPLVGCFFCMCRCCNKCGGEMHQRQKQNAPCRRKCLGLSLLVICLLMSLGIIYGFVANQQTRTRIKGTQKLAKSNFRDFQTLLTETPKQIDYVVEQYTNTKNKAFSDLDGIGSVLGGRIKDQLKPKVTPVLEEIKAMATAIKQTKDALQNMSSSLKSLQDAATQLNTNLSSVRNSIENSLSSSDCTSDPASKICDSIRPSLSSLGSSLNSSQLPSVDRELNTVTEVDKTDLESLVKRGYTTIDEIPNTIQNQTVDVIKDVKNTLDSISSNIKDMSQSIPIEDMLLQVSHYLNNSNRYLNQELPKLEEYDSYWWLGGLIVCFLLTLIVTFFFLGLLCGVFGYDKHATPTRRGCVSNTGGIFLMAGVGFGFLFCWILMILVVLTFVVGANVEKLLCEPYENKKLLQVLDTPYLLKEQWQFYLSGMLFNNPDINMTFEQVYRDCKRGRGIYAAFQLENVVNVSDHFNIDQISENINTELENLNVNIDSIELLDNTGRKSLEDFAHSGIDTIDYSTYLKETEKSPTEVNLLTFASTLEAKANQLPEGKPKQAFLLDVQNIRAIHQHLLPPVQQSLNTLRQSVWTLQQTSNKLPEKVKKILASLDSVQHFLTNNVSLIVIGETKKFGKTILGYFEHYLHWVFYAITEKMTSCKPMATAMDSAVNGILCGYVADPLNLFWFGIGKATVLLLPAVIIAIKLAKYYRRMDSEDVYDDVETVPMKNLEIGSNGYHKDHLYGVHNPVMTSPSRY
Consider B1, for which the binding entry in assay [2] was “binds”.

B2: PROM1-FLAG (protein, UniProt O43490 20-865)
chain: GGQPSSTDAPKAWNYELPATNYETQDSHKAGPIGILFELVHIFLYVVQPRDFPEDTLRKFLQKAYESKIDYDKPETVILGLKIVYYEAGIILCCVLGLLFIILMPLVGYFFCMCRCCNKCGGEMHQRQKENGPFLRKCFAISLLVICIIISIGIFYGFVANHQVRTRIKRSRKLADSNFKDLRTLLNETPEQIKYILAQYNTTKDKAFTDLNSINSVLGGGILDRLRPNIIPVLDEIKSMATAIKETKEALENMNSTLKSLHQQSTQLSSSLTSVKTSLRSSLNDPLCLVHPSSETCNSIRLSLSQLNSNPELRQLPPVDAELDNVNNVLRTDLDGLVQQGYQSLNDIPDRVQRQTTTVVAGIKRVLNSIGSDIDNVTQRLPIQDILSAFSVYVNNTESYIHRNLPTLEEYDSYWWLGGLVICSLLTLIVIFYYLGLLCGVCGYDRHATPTTRGCVSNTGGVFLMVGVGLSFLFCWILMIIVVLTFVFGANVEKLICEPYTSKELFRVLDTPYLLNEDWEYYLSGKLFNKSKMKLTFEQVYSDCKKNRGTYGTLHLQNSFNISEHLNINEHTGSISSELESLKVNLNIFLLGAAGRKNLQDFAACGIDRMNYDSYLAQTGKSPAGVNLLSFAYDLEAKANSLPPGNLRNSLKRDAQTIKTIHQQRVLPIEQSLSTLYQSVKILQRTGNGLLERVTRILASLDFAQNFITNNTSSVIIEETKKYGRTIIGYFEHYLQWIEFSISEKVASCKPVATALDTAVDVFLCSYIIDPLNLFWFGIGKATVFLLPALIFAVKLAKYYRRMDSEDVYDDVETIPMKNMENGNNGYHKDHVYGIHNPVMTSPSQH
Turning to B2, the binding result in assay [3] is “binds”.
